Measured data: PubChem BioAssay AID1508597 (Cure First, 2020)

- Screen: 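Knock-downs altering ovarian cancer cell survival with or without PARP inhibitor rucaparib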 (primary screen)
- Cell system: human ovarian carcinoma lines grown from tumours: OCI-P5x (papillary serous) and OCI-C5x (clear cell)
- Reagent: siRNA pool against human genes, 1.25 pmol siRNA per well
- Timing: 72 h or 96 h, depending on the cell culture
- Challenge: rucaparib 20 µM (about IC30) or vehicle, present until read-out
- Rucaparib or vehicle: Rucaparib
- Cell line: OCI-C5x (clear cell)
- Measurement: 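ATP luminescence measured at 72 or 96 h according to the culture, then normalised and expressed as percent viability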
- Direction: viability, normalised: higher = more viable cells remaining
- Call rule: 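a well counts as a hit if its normalised viability is under 80 percent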
- Calls: active = viability under 80%; inactive = viability 80% or more
This is an unselected part of the about 2,100 reagents, in one setting of the screen. 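Calls flag viability under 80% in either arm, not effects specific to rucaparib; the reference for percent is not stated.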 Unmarked entries are inactive. A reagent listed more than once was tested more than once; the source does not tell the runs apart. No sequences are given here. The record does not give: the 100% reference.

MUSK (muscle associated receptor tyrosine kinase), technical replicate 1
- viability, normalised (%): 54.1 (active)

MUSK (muscle associated receptor tyrosine kinase), technical replicate 2
- viability, normalised (%): 61.1 (active)

MUSK (muscle associated receptor tyrosine kinase), technical replicate 3
- viability, normalised (%): 51.2 (active)

ROBO1 (roundabout guidance receptor 1), technical replicate 1
- viability, normalised (%): 52.4 (active)

ROBO1 (roundabout guidance receptor 1), technical replicate 2
- viability, normalised (%): 45.7 (active)

ROBO1 (roundabout guidance receptor 1), technical replicate 3
- viability, normalised (%): 40.8 (active)

DRD3 (dopamine receptor D3), technical replicate 1
- viability, normalised (%): 32 (active)

DRD3 (dopamine receptor D3), technical replicate 2
- viability, normalised (%): 24.1 (active)

DRD3 (dopamine receptor D3), technical replicate 3
- viability, normalised (%): 34.1 (active)

BMI1 (BMI1 proto-oncogene, polycomb ring finger), technical replicate 1
- viability, normalised (%): 43.8 (active)

BMI1 (BMI1 proto-oncogene, polycomb ring finger), technical replicate 2
- viability, normalised (%): 53.8 (active)

BMI1 (BMI1 proto-oncogene, polycomb ring finger), technical replicate 3
- viability, normalised (%): 54.1 (active)

GTF2H2 (general transcription factor IIH subunit 2), technical replicate 1
- viability, normalised (%): 64.7 (active)

GTF2H2 (general transcription factor IIH subunit 2), technical replicate 2
- viability, normalised (%): 63.4 (active)

GTF2H2 (general transcription factor IIH subunit 2), technical replicate 3
- viability, normalised (%): 66.2 (active)

ITGB1 (integrin subunit beta 1), technical replicate 1
- viability, normalised (%): 54.4 (active)

ITGB1 (integrin subunit beta 1), technical replicate 2
- viability, normalised (%): 44 (active)

ITGB1 (integrin subunit beta 1), technical replicate 3
- viability, normalised (%): 40.8 (active)

IP6K2 (inositol hexakisphosphate kinase 2), technical replicate 1
- viability, normalised (%): 47.9 (active)

IP6K2 (inositol hexakisphosphate kinase 2), technical replicate 2
- viability, normalised (%): 49.7 (active)

IP6K2 (inositol hexakisphosphate kinase 2), technical replicate 3
- viability, normalised (%): 62.2 (active)

BAP1 (BRCA1 associated deubiquitinase 1), technical replicate 1
- viability, normalised (%): 48 (active)

BAP1 (BRCA1 associated deubiquitinase 1), technical replicate 1
- viability, normalised (%): 52.2 (active)

BAP1 (BRCA1 associated deubiquitinase 1), technical replicate 2
- viability, normalised (%): 48.5 (active)

BAP1 (BRCA1 associated deubiquitinase 1), technical replicate 2
- viability, normalised (%): 65.3 (active)

BAP1 (BRCA1 associated deubiquitinase 1), technical replicate 3
- viability, normalised (%): 41.2 (active)

BAP1 (BRCA1 associated deubiquitinase 1), technical replicate 3
- viability, normalised (%): 50.3 (active)

PRMT3 (protein arginine methyltransferase 3), technical replicate 1
- viability, normalised (%): 55.1 (active)

PRMT3 (protein arginine methyltransferase 3), technical replicate 2
- viability, normalised (%): 44 (active)

PRMT3 (protein arginine methyltransferase 3), technical replicate 3
- viability, normalised (%): 39.6 (active)

MBD3 (methyl-CpG binding domain protein 3), technical replicate 1
- viability, normalised (%): 36.5 (active)

MBD3 (methyl-CpG binding domain protein 3), technical replicate 2
- viability, normalised (%): 18.8 (active)

MBD3 (methyl-CpG binding domain protein 3), technical replicate 3
- viability, normalised (%): 29.9 (active)

2 entries from above, arranged by “viability, normalised (%)”, descending.
DRD3 (dopamine receptor D3), technical replicate 1
- viability, normalised (%): 32 (active)

DRD3 (dopamine receptor D3), technical replicate 2
- viability, normalised (%): 24.1 (active)
